Hit rate of the full screen: of about 52,000 sequences, about 210 (0.4%) were called active.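 Rule for the calls: active = gene whose silencing raises cell survival under the drug, median off-target-corrected z-score across its silencing RNAs 2 or more; inactive = the rest.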 The list shows a part of the results.
Assay: Resistance to Poly (ADP-Ribose) Polymerase inhibitor: Gene Identification via Genome-wide siRNA Screen
Conditions: mouse BRCA2 R2336H ES cells, olaparib, CellTiter-Glo viability; hits give high values
Procedure, shortened: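 Mouse BRCA2 R2336H ES cells were reverse-transfected with siRNA (20 nM final), treated at 48 h with 500 nM olaparib, and read by CellTiter-Glo after 72 h. Scores: MAD-based z per siRNA, median per gene, seed off-target correction.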

| Sequence | z-score |
| --- | --- |
| GGACAACUCGAUUUUAUCCTT against Nudt15 | inactive: 0.0702 |
| GCCUGAUAGUGGUGGACAGTT against 2310005G13Rik | inactive: 2.52 |
| CCGGAUCAUCCUGGAGAUUTT against Krt1-13 | inactive: 0.237 |
| GGGAGACUCCUUUUGCACUTT against Wnt1 | inactive: 0.264 |
| GGAGGCUUCAUUCUGCUUUTT against D6Ertd32e | inactive: 0.658 |
| GGAGAAAUAAGUGCAGGUGTT against 4930539I12Rik | inactive: -1.19 |
| GCAACCUAUGUCUGCAACUTT against Ecg2 | inactive: -1.45 |
| GCAAAUUUUAUAUGCGACUTT against Glipr1 | inactive: 0.746 |
| GCUGGAUUCUCAAAGGGAATT against A530016O06Rik | inactive: -0.14 |
| GGACAUGGAUUUGAUAGACTT against Acaa2 | inactive: -1.36 |
| GCGAAGAUCACCAUGUCUCTT against Oosp1 | inactive: 0.688 |
| GGUUUCUUCGAAUUACUGUTT against Ugt1a10 | inactive: -0.00854 |
| GCUAAGCGAAGAGUUUAACTT against Dlgap3 | inactive: -0.0125 |
| GGCUGUGAAUUGUUAACUATT against Stard4 | inactive: -1.41 |
| GGUGGAAGAGAAACUCAGGTT against Mill2 | inactive: 0.788 |
| GGCAUUUGACACAACUGUCTT against AI182371 | inactive: -0.124 |
| GCCACUCUUUAAGAAUCUATT against Abcf1 | inactive: -0.475 |
| GGAAGUUGACUUGUUCUCUTT against Ccndbp1 | inactive: -0.348 |
| GCAAGGAAGGCUUUCAAGATT against Gsta1 | inactive: 1.41 |
| GAUGACUAGCUCUACUUUATT against Olfr738 | inactive: 0.559 |
| GGUUGUCUACUUCACCGCUTT against Slc6a6 | inactive: 1.63 |
| CCUAAAGGUUCCCAACAGUTT against Serpinb3d | inactive: -0.0276 |
| GGAGAACCUGCUGAAGGACTT against Itgb3 | inactive: -0.362 |
| GCAGUCUUUCUAAACAUAUTT against E130319B15Rik | inactive: 0.535 |
| GGAGAAAAUGCAGUGUGAGTT against 1190005P17Rik | inactive: -1.84 |
| GGACCGUAUCCCAAAAGAUTT against Klf1 | inactive: -1.41 |
| GGAUUAUCCUCUUUGACACTT against Kremen | inactive: 0.539 |

Retrieved one by one from the entries so far, two records:

| Sequence | z-score |
| --- | --- |
| GGACAACUCGAUUUUAUCCTT against Nudt15 | inactive: 0.0702 |
| GGAGAACCUGCUGAAGGACTT against Itgb3 | inactive: -0.362 |

Continuation.

| Sequence | z-score |
| --- | --- |
| GGUAUUCAGAAAUAUCAAGTT against Pgcp | inactive: -0.966 |
| CGUUUGAUGAGACCAUGUATT against Vwf | inactive: -0.238 |
| GUCAUGGUAGGGAUUUACATT against Gm226 | inactive: -0.576 |
| GGCAAAUAAGAGAUAUCCATT against Vps24 | inactive: 1.91 |
| CCUUCAACAGAUCUAGAGUTT against Tceb3bp1 | inactive: 1.47 |
| CGAAGGGCUUUAGCUUGGATT against Capn11 | inactive: -1.39 |
| GGUAUACUCUUAGAGUAACTT against Kelchl | inactive: -0.692 |
| GGUCUCAGAAGUGGUUUUCTT against Mettl4 | inactive: 2.06 |
| GGCUUCAUGCUACACAGAUTT against Soat2 | inactive: -0.222 |
| GCAUCCUAAAGGAGACGCATT against BC027663 | inactive: 0.784 |
| CGUAAGAUGAAAGCUAUUGTT against Mtx2 | inactive: -0.0996 |
| GCAGGCUCUGCAUGAAGCATT against Akp2 | inactive: -0.913 |
| GGUGGCAGUGAAAGUCAUUTT against Snrk | inactive: -0.723 |
| CCUUGGUCACCGAAUUUAUTT against Olfr152 | inactive: 0.752 |
| GAAAUAUUACAGCGACUGUTT against 2610017I09Rik | inactive: 0.671 |
| GCGUUUGGGCCGGAAGAAATT against Smo | inactive: 0.111 |
| GGCCAAAUUAGAAAAAGUCTT against Polr3e | inactive: -2.57 |
| GGGUCAUGUACAAUCUCUUTT against Bbc3 | inactive: 0.819 |
| GGUGCUGUGGUUAAAAUGATT against Pgm5 | inactive: 0.315 |
| GGAGACAUGGCAUCCAAAUTT against Cnr1 | inactive: 0.734 |
| CCGCAUGAAGAGCAACCACTT against Hgs | inactive: 0.793 |
| CCACCUUUAUUCAAAAUCGTT against Mmp20 | inactive: 0.883 |
| GCGAGUUGUUUCCAUAGUUTT against Gpr22 | inactive: 0.273 |
| GGAUGUGAUAUUAUAAAGGTT against Apba1 | inactive: -0.421 |
| GGUCAUGCUCAUCUUCUAUTT against Pigq | inactive: 0.839 |
| GGGAAUCUUUGUAAACAGATT against 1810013B01Rik | inactive: 0.197 |
| GGAGGACUCCAAGACCUUCTT against Rcn1 | inactive: -0.355 |

| Sequence | z-score |
| --- | --- |
| GGCCUACAUGAACCAGAGATT against Bloc1s1 | inactive: -1.78 |
| CGAGAACUUAAAAUGGGAATT against Cd3e | inactive: 0.544 |
| GCAAAGCCCUAUUCCUAAUTT against V2r4 | inactive: -0.0485 |
| GGUCAGAGUCAUCAACUUATT against Asb8 | inactive: 1.05 |
| GCCCUUUCAUCAAUAAUGUTT against Slc12a7 | inactive: 0.622 |
| GGCCCUUUAACACAUACCCTT against Pak4 | inactive: -0.49 |
| GGAUGAAGCAGAAGAAUAATT against Spg7 | inactive: -1.73 |
| GGGCAACAUGUUAUUCUACTT against Psg29 | inactive: 0.459 |
| GGAGUGACUAACCCUCUAGTT against Ccnk | inactive: -2.69 |
| GAAUGCGGCUGUAUGAGAATT against Crygc | inactive: -2.04 |
| GGGCGACACAAGGUUUUUGTT against Kif3a | active: 1.13 |
| CGAGAAUGUGUCUUCUUUATT against Trpm8 | inactive: 0.171 |
| UCAGAACCAUUUCUGUGCGTT against Pou4f1 | inactive: -0.303 |
| CGAGUGUGAUACGUACUUCTT against Jag1 | inactive: -0.597 |
| GCCCAUUAUAGGAAAGAACTT against Rhox12 | inactive: -0.4 |
| CCUUUGAGACAACCAGUCCTT against Entpd2 | inactive: -0.697 |
| GGUCUCCCUUUUCAAUCGCTT against Rbpsuhl | inactive: 0.306 |
| GCACUGAACUUUGUCGAUUTT against 2900009I07Rik | inactive: -0.545 |
| UAGCACCAUUUUUCAGAACTT against Ascc1 | inactive: 5 |
| GGAGAUAGAAUUGAAAUUCTT against Dtprp | inactive: -0.903 |
| GGUUUGCUACACUUCAGAATT against Xpr1 | inactive: 0.787 |
| GGAAUAUGCUGCAAAAAUCTT against Camk2g | inactive: -0.675 |
| GCUCUGCAUGACCUUACCUTT against 1300012D20Rik | inactive: -0.193 |
| GGAUCAACUUACUUGUGGCTT against 8430437G11Rik | inactive: -0.28 |
| CCUCCACUGCUUUUGUCUATT against Olfr1436 | inactive: -0.777 |
| GGAGUGUUGGAUGCUACCATT against Ache | inactive: 2.2 |
| GGAUGGUUAUGUGUGGAGUTT against Socs4 | inactive: -0.3 |

| Sequence | z-score |
| --- | --- |
| GCACACCUAUGUCCACUCUTT against Aars | inactive: -0.69 |
| CCAUGGAGUCUGGUUUCCUTT against Olfr591 | inactive: 1.79 |
| GGACCAAGGCUUGGAUCUUTT against Magea6 | inactive: -2.08 |
| CCCUAUCUCAAGGAAUAAATT against Pcyox1 | inactive: -1.57 |
| GGAGACUUCUUUUUUGACATT against Myo7b | inactive: -0.104 |
| CCCAGUAUCCCAUAACCCATT against 1700022I11Rik | inactive: -1.67 |
| GGAAAUUUGUAUCCCGAGUTT against Trp53 | inactive: 4.7 |
| GGAAAGAGGGUUUAUUUUGTT against 4930556L07Rik | inactive: 1.24 |
| GGAUAUUCCUGCUGUCACCTT against Dmrt1 | inactive: -0.3 |
| GGUUGUGUCUUCUUUUCUCTT against Cenph | inactive: 0.34 |
| GCCUACUUCUGUUAAUUCUTT against D10Ucla2 | inactive: 0.324 |
| GGAGAGAGAUGCCCAAAUCTT against A230056M16 | inactive: -0.672 |
| GCUUGAAUAUGAGAACGAATT against 4933401K09Rik | inactive: -1.11 |
| CCAUCCGCCUGUUAGAAAGTT against BC062185 | inactive: -2.34 |
| GCAUUGUUUUUCUAUUCAGTT against Cfhl1 | inactive: 0.0601 |
| CCGAAGUUAAGACAAAGAATT against 1700012M14Rik | inactive: -0.11 |
| CGUGGACAUCGAUAUCACCTT against Slc26a8 | inactive: 1.92 |
| GGCCAAUGCCUACAAGUAGTT against AW557805 | inactive: -0.164 |
| CCCUUGCUACAAUGAUGCCTT against Mfge8 | inactive: -0.195 |
| GGUGCUGAUGAAGUUCAUGTT against Ap1b1 | inactive: 0.163 |
| GCGAUGAUGAAAGCUCAGUTT against Atad1 | inactive: -1.87 |
| GGGUAUAGAGUCAAUCUGATT against A930009M04Rik | inactive: 0.252 |
| GGAACAUCAUUACAGCCAATT against C030018G13Rik | inactive: 0.426 |
| GGAUGAUUGUGUUUCGACUTT against Stoml1 | inactive: 0.00388 |

Reprinted from the entries so far (5 entries):

| Sequence | z-score |
| --- | --- |
| GCUUGAAUAUGAGAACGAATT against 4933401K09Rik | inactive: -1.11 |
| CCAUCCGCCUGUUAGAAAGTT against BC062185 | inactive: -2.34 |
| GCAUUGUUUUUCUAUUCAGTT against Cfhl1 | inactive: 0.0601 |
| CCGAAGUUAAGACAAAGAATT against 1700012M14Rik | inactive: -0.11 |
| CGUGGACAUCGAUAUCACCTT against Slc26a8 | inactive: 1.92 |

— PubChem BioAssay AID1347423 (Functional Genomics Laboratory (NCATS/FGL), 2020)
